Assay results reported in patent publication US20210052703A1 (SHANGHAI BENEMAE PHARMACEUTICAL CORPORATION, priority 2018, published 2021).
At least one compound was matched to its structure with a doubt left.

Tested on: Sprague-Dawley (SD) rats
Experiment: stomach emptying and carbon powder propelling in SD rats (Example 1)
Assay type: in vivo, rat
Conditions: liraglutide 270 μg/kg subcutaneous; for % of Gastric Remains / Gross Weight of Stomach / Propelling Distance of Carbon Powder / Propelling Rate of Carbon Powder: X ± SE
Procedure: Each group had 10 rats, half male and half female. The tails of the rats were labeled as follows:
The dose selection is calculated based on human dose. The clinical human dose is estimated to be about 0.4 mg/injection, one injection per day, which corresponds to 36 μg/kg rat dose, calculated based on the body surface area. Accordingly, the rats were tested at a medium dose of 30 μg/kg, a low dose at 50% of the medium dose, and a high dose at 200% of the medium dose. The clinical human dose of liraglutide for treating obesity is 3.0 mg/injection, one injection per day, which corresponds to 270 μg/kg rat dose, calculated based on the body surface area.
The positive control was liraglutide injectable formulation, which was stored in dark, sealed condition. The rats were raised and kept at the Laboratory Animal Center, Shanghai University of Traditional Chinese Medicine.
The injectable formulations were made and diluted at the time of experiment, as follows:
The rats were fasted for 16 hours with only water provided. Before being divided into groups, the rats were weighed and weights were recorded (cage numbering and tail labeling). Based on the body weight, the rats were randomly divided into 5 groups, 10 in each group, half male and half female.
The rats were administered with appropriate amounts of Beinaglutide or liraglutide based on their body weights by subcutaneous injection. Female rats were injected after male rats, in the order of their group numbers: 101, 201, 301, 401, 501, 102, 202, 302, 402, 502, etc. The formulations were injected to the rats by lifting the skin in the back, placing the needle of the syringe subcutaneously and injecting. When retrieving the needle, the site of injection was pressed with hand to avoid leakage of the formulation. The amount of injection is about 0.1 ml/100 g body weight.

CCCCCCCCCCCCCCCC(=O)N[C@@H](CCC(=O)NCCCC[C@H](NC(=O)[C@H](C)NC(=O)[C@H](C)NC(=O)[C@H](CCC(N)=O)NC(=O)CNC(=O)[C@H](CCC(=O)O)NC(=O)[C@H](CC(C)C)NC(=O)[C@H](Cc1ccc(O)cc1)NC(=O)[C@H](CO)NC(=O)[C@H](CO)NC(=O)[C@@H](NC(=O)[C@H](CC(=O)O)NC(=O)[C@H](CO)NC(=O)[C@@H](NC(=O)[C@H](Cc1ccccc1)NC(=O)[C@@H](NC(=O)CNC(=O)[C@H](CCC(=O)O)NC(=O)[C@H](C)NC(=O)[C@@H](N)Cc1cnc[nH]1)[C@@H](C)O)[C@@H](C)O)C(C)C)C(=O)N[C@@H](CCC(=O)O)C(=O)N[C@@H](Cc1ccccc1)C(=O)N[C@H](C(=O)N[C@@H](C)C(=O)N[C@@H](Cc1c[nH]c2ccccc12)C(=O)N[C@@H](CC(C)C)C(=O)N[C@H](C(=O)N[C@@H](CCCNC(=N)N)C(=O)NCC(=O)N[C@@H](CCCNC(=N)N)C(=O)NCC(=O)O)C(C)C)[C@@H](C)CC)C(=O)O [Liraglutide, liraglutide, reference compound]
% of Gastric Remains (female rats): 75.13 ± 2.11% | Gross Weight of Stomach (female rats): 2.64 ± 0.06 g | Propelling Distance of Carbon Powder (female rats): 51.46 ± 2.23 cm | Propelling Rate of Carbon Powder (female rats): 56.38 ± 3.56% | difference to control group in stomach emptying and propelling rate of carbon powder (male and female rats): not statistically significant | % of Gastric Remains (male rats): 58.29 ± 14.55% | Gross Weight of Stomach (male rats): 3.14 ± 0.30 g | Propelling Distance of Carbon Powder (male rats): 54.66 ± 4.35 cm | Propelling Rate of Carbon Powder (male rats): 52.94 ± 3.82%
